For one molecule, binding results are on record in patent US20110033521A1 (RAPPAPORT FAMILY INSTITUTE FOR RESEARCH IN THE MEDICAL …, published 2011).

The chains behind the UniProt entries cited, without tags or fusion partners. Residues count along the entry.
UniProt P13500, residues 24-99: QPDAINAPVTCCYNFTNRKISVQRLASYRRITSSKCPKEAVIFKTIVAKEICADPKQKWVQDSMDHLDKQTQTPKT

These are yes or no findings as the source states them, for the method shown. Some entries that bind do so weakly or less than the wild type. Sequences can lack the tags named with a protein.

The target in assay [1] is T1, recombinant human MCP-1 (CCL2) (human, UniProt P13500 24-99).
T1 construct: Bought recombinant protein; also called RHMCP-1; monocyte chemoattractant protein-1
The experiment in a line: direct ELISA (FIG. 3 legend). (In general: ELISA stands for enzyme-linked immunosorbent assay.)

Assay [2] has as its target T1, recombinant human MCP-1 (CCL2). Put plainly: direct ELISA, chemokine coated at 100 ng/ml, CCR2(E3)-IgG at 5 ug/ml.

B1: CCR2(E3)-IgG fusion protein (Fc fusion)
chain: GLSNCESTSQLDQATQVTET
notes: also called Ig-E3; CCR2-IgG; not shown: constant region (Hinge-CH2-CH3) of human IgG1 heavy chain, ligated downstream of CCR2 (E3)
As for B1, the binding entry in assay [1] and in assay [2] was “binds” throughout.
